By AC50 is commonly meant the concentration giving half of the maximal activity seen.

Molecules are shown by their SMILES. This is one part of the list. Further columns of the screen follow, without active or inactive calls. Most of these compounds were active or inconclusive in the main read-out, so they are no random draw. The note in brackets gives the kind of curve behind each potency; many fits are weak.

This experiment can be described thus: qHTS Assay for Lipid Storage Modulators in Drosophila S3 Cells.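 For cell number change: cells counted by Cell Tracker Red CMTPX staining in the red channel.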 The following applies: BODIPY lipid droplet fluorescence, 18-24 h; for cell number change: measured here: cell count max response, cells fed with added oleic acid. An excerpt: NIH Molecular Libraries Probe Production Centers Network [MLPCN] NIH Chemical Genomics Center [NCGC] MLPCN Grant: 1 R03 MH085686-01 Assay Submitter (PI): Beller, Mathias; Max-Planck-Institut fur Biophysikalische Chemie NCGC Assay Overview: Storing lipids as a reservoir for energy or the anabolism of elementary metabolites is a common feature of probably all cells and is conserved from bacteria to humans. The universal cellular lipid storage organelle is the so-called lipid storage droplet (LD). Although ubiquitous, LDs share a simple structure composed of a hydrophobic core that harbors the storage lipids, which is shielded by a droplet-specific phospholipid monolayer to which proteins are attached. The current model of LD biogenesis involves an incorporation of the lipid core into the membrane leaflets of the endoplasmic reticulum (ER) followed by a subsequent budding-like maturation of a LD, which ultimately pinches off. Once released, LD volume can increase by localized lipogenesis or fusion of existing droplet. Storage lipids are re-mobilized enzymatically by lipase activity. Lipase regulation in the adipocyte is heavily studied and involves multiple components including catecholamine signaling, the LD-associated proteins Perilipin and comparative gene identification (CGI-58) and at least two lipases named hormone sensitive lipase (HSL) and adipocyte triglyceride lipase (ATGL). LD regulation outside of the adipocyte is poorly understood and only few components are known. However, there is an urgent need to learn more about ectopic fat depots as mislocalized storage of lipids, for example in the liver or muscle, is an eminent health problem associated with insulin resistance or the metabolic syndrome. We developed a laser-scanning cytometer assay to enable 1,536-well screening and combined the results of the small molecules screen with an RNAi database based on lipid storage.
Triacsin C (Sigma-Aldrich T-4540), an inhibitor of long-chain fatty acyl CoA synthetase that blocks synthesis of triglycerides, was used as a positive control for lipid under-storage. A total of 23 nL of compound solution of different concentrations were transferred to the assay plates using a Kalypsys pin tool equipped with a 1,536-pin array containing 10-nL slotted pins (FP1S10, 0.457-mm diameter, 50.8 mm long; V&P Scientific). One microliter of oleic acid (400 uM) was added, and the plate was lidded with stainless steel rubber gasket lined lids containing pinholes. […] Fluorescence was detected by excitation of the fluorophores with a 488-nm laser on an Acumen Explorer (TTP Lab Tech). The total intensity in channel 2 (500-530 nm) reflected lipid droplet accumulation. Cells were detected using channel 3 (575-640 nm) with 5-um width and 100-um depth filters. The ratio of the number of objects in PMT channel 2 over the number of objects in PMT channel 3 was also calculated. Percent activity was computed relative to an internal control (100% inhibited lipid droplet deposition due to the presence of 20 uM Triacsin C), which was added to 32 wells/plate.

[1] abbreviates: measured here: lipid fluorescence (Fed channel) AC50, cells fed with added oleic acid.
Setting [2] is: measured here: cell number channel AC50, cells fed with added oleic acid.

For the compound `CCOc1ccc2oc(C(=O)N3CCN(Cc4ccccc4)CC3)c(C)c2c1`, the cell number change was 19%. For the same compound, under setting [1], the AC50 was 29.1 µM [rising, single point].
As to `Cc1[nH]c2c(ccc3ccccc32)c1C1C(CCN)C1(C)C` (configuration not stated), the cell number change came to 3.31%. Also, the AC50 under setting [1] was 3.66 µM [falling, partial curve, poor fit].
For the compound `Cc1ccc(S(=O)(=O)n2cc(-c3ccccc3)c(N)n2)cc1`, the cell number change worked out at 31.2%. Under setting [2], the AC50 was 5.8 µM [rising, full curve, poor fit]. In addition, under setting [1], the AC50 is 6.51 µM [rising, single point].
`CCn1c(C)c(C(C)=O)c(N2CCCC2)nc1=S`: the cell number change stood at 1.33%.
Take `CC(C)c1ccc(NC2CCCN(C(=O)c3cccc(N4CCNC4=O)c3)C2)cc1` (configuration not stated): the AC50 under setting [1] was 6.51 µM [rising, single point].
Turning to `COc1cc(C(=O)N/N=C/c2ccc(OC(=O)c3ccccc3)c(OC)c2)ccc1O`, the cell number change is -5.6%. Moreover, the AC50 under setting [1] was 0.731 µM [rising, partial curve, poor fit].
On to `C=CCSc1nnc(-c2ccncc2)n1-c1ccc(OCC)cc1`, for which the cell number change was found to be 36.7%. Moreover, the AC50 under setting [2] is 29.1 µM [rising, single point]. Moreover, the AC50 under setting [1] was 0.13 µM [rising, full curve, poor fit].
In the case of `CC(C)CCOc1ccc(C(=O)NCC(c2cccs2)N2CCOCC2)cc1` (configuration not stated), the cell number change was determined as 0.81%.
With `Cn1c(SCC(=O)NCc2ccc3c(c2)OCO3)nnc1-c1cc2ccccc2cc1O`, the cell number change is -26.1%.
Turning to `O=C(N/N=C/c1cccs1)c1n[nH]c2c1CCCC2`, the cell number change was -25.5%. Besides, the AC50 under setting [2] is 0.0731 µM [rising, full curve, poor fit].
As to `Cc1ccc(NCC(=O)Nc2ccc(Br)cc2)cc1C`, the cell number change is -26%.
On to `COC(=O)C1=NNC2C(=O)N(c3ccc(C)cc3)C(=O)C12` (configuration not stated), for which the cell number change amounted to 85.7%. The AC50 under setting [2] was 20.6 µM [rising, single point].
Regarding `CC(C)Nc1cc(N2CCCC2)ccc1[N+](=O)[O-]`, the cell number change was -7.63%. The AC50 under setting [1] was 0.461 µM [falling, single point].
Consider `Cc1cc(C)c(C)c(OCCCOc2cccc3cccnc23)c1`, for which the cell number change was -70.9%. Under setting [2], the AC50 is 25.9 µM [falling, partial curve]. In addition, the AC50 under setting [1] was 29.1 µM [falling, single point].
For the compound `O=C(NCc1ccccc1)C1CCCN(c2nc3ccsc3c(=O)s2)C1` (configuration not stated), the cell number change was determined as 12.6%. The AC50 under setting [1] was 6.51 µM [rising, single point].
On to `COc1cccc(/C=C/C(=O)Nc2ccc3c(c2)OCCO3)c1`, for which the cell number change stood at 47.5%. In addition, the AC50 under setting [2] is 29.1 µM [rising, single point]. Besides, the AC50 under setting [1] is 29.1 µM [rising, single point].
For `CCn1c(=O)c(=O)[nH]c2cc(C(=O)NC3CC3)ccc21`, the cell number change was -4.32%. Moreover, the AC50 under setting [1] was 0.146 µM [falling, full curve, poor fit].
As for `CCOc1cccc(C2/C(=C(/O)c3ccc4c(c3)CC(C)O4)C(=O)C(=O)N2CCCn2ccnc2)c1` (configuration not stated), the cell number change was 25.4%.
Consider `O=C(NC1CCCCCC1)c1cc(S(=O)(=O)N2CCOCC2)ccc1F`, for which the cell number change worked out at 16%. Under setting [1], the AC50 was 0.58 µM [rising, single point].
Regarding `CSc1nnc(-c2ccncc2)n1/N=C/c1cn(-c2ccccc2)nc1-c1ccc(Cl)cc1`, the cell number change was 2.84%. In addition, the AC50 under setting [1] is 0.58 µM [rising, full curve, poor fit].
As for `COC(=O)c1cccc(NC(=O)CCCOc2cccc(C)c2)c1`, the cell number change is -15.4%. In addition, the AC50 under setting [1] was 3.26 µM [rising, partial curve].
`CC(=O)N1CCc2c(sc(NC(=O)C3CCCN3S(=O)(=O)c3cccs3)c2C#N)C1` (configuration not stated): the AC50 under setting [1] was 2.31 µM [rising, single point].
Take `COc1ccc(C2c3c(oc4ccccc4c3=O)C(=O)N2c2ccc(C)cn2)cc1OC` (configuration not stated): the cell number change was 17.7%. Moreover, the concentration at half-maximal activity (AC50) under setting [1] is 10.3 µM [rising, partial curve].
`COC(=O)C(C)Sc1nnc(Cc2cc(=O)[nH]c(=O)[nH]2)n1-c1cccc(OC)c1` (configuration not stated): the cell number change was -17.3%.
Still for that read-out and setting: to `O=C(CCN1C(=O)c2ccccc2S1(=O)=O)NCc1ccccc1` belongs 28.5%.
Consider `Cc1c(C(=O)Nc2ccc3c(c2)OCCO3)sc2nc(-c3ccccc3)cn12`, for which the cell number change is -34.9%. For the same compound, the AC50 under setting [2] is 16.4 µM [falling, single point].
With `CCC(=O)Nc1ccc(C(=O)NNC(=O)c2cc(OC)c(OC)c(OC)c2)cc1`, the cell number change stood at 14%. In addition, the AC50 under setting [1] was 23.1 µM [rising, partial curve].
On to `CC(C)(C)OC(=O)N1CCOCCOCCN(C(=O)OC(C)(C)C)CCOCCOCC1`, for which, under setting [1], the AC50 is 7.31 µM [falling, partial curve, poor fit].
With `CCCNC(=O)c1onc(CSc2cccc(OC)c2)c1C(=O)NCCC`, the cell number change is 9.31%. For the same compound, under setting [1], the AC50 is 6.51 µM [rising, single point].
Take `Cc1cccc(N2C(=O)C(O)=C(C(=O)c3cccs3)C2c2cccc(Oc3ccccc3)c2)n1` (configuration not stated): the cell number change is 33.1%.
As to `CC1=NN(C(=O)CCc2ccccc2)C(O)(c2ccncc2)C1` (configuration not stated), the cell number change was 39.2%. Further, the AC50 under setting [2] was 3.66 µM [rising, full curve].
Turning to `Cc1onc(-c2ccccc2Cl)c1C(=O)Nc1ccc(CN2CCCC2)cc1`, the cell number change was determined as 85.7%. In addition, under setting [2], the concentration at half-maximal activity (AC50) is 29.1 µM [rising, single point].
On to `CCOC(=O)N1CCN(C(=O)COC(=O)CSc2cc(C)c(Br)cc2C)CC1`, for which the cell number change is 18.3%. Moreover, the AC50 under setting [1] is 29.1 µM [falling, single point].
Regarding `CCCC1(C(=O)O)NC(c2ccc(OC)cc2O)C2C(=O)N(c3ccc(OC)cc3)C(=O)C21` (configuration not stated), the cell number change amounted to 8.15%. Besides, under setting [2], the AC50 was 0.411 µM [falling, single point]. Also, under setting [1], the AC50 was 0.326 µM [falling, partial curve, poor fit].
For the compound `CCc1ccc(C(=O)CSc2nc(C)cc(=O)[nH]2)cc1`, the cell number change is 0.631%.
With `CCNc1ccc(S(=O)(=O)N2CCCCC2)cn1`, the cell number change stood at 0.688%. For the same compound, under setting [1], the half-maximal activity concentration (AC50) was 6.51 µM [rising, single point].
`COc1ccccc1NC(=O)CSc1n[nH]c(-c2cccnc2)n1`: the cell number change stood at 18.4%. Also, under setting [1], the AC50 was 29.1 µM [rising, single point].
In the case of `O=C(CNC(=O)c1ccccc1F)OC(C(=O)Nc1cc(C(F)(F)F)ccc1Cl)c1ccccc1` (configuration not stated), the cell number change was 1.89%. Under setting [1], the half-maximal activity concentration (AC50) is 0.326 µM [rising, full curve, poor fit].
`COC(=O)C1(C(F)(F)F)C2C=CC(C2)N1S(=O)(=O)c1ccc(C)cc1` (configuration not stated): the cell number change was 17.9%. For the same compound, under setting [1], the AC50 is 5.17 µM [falling, single point].
As for `COc1ccc(OC)c(-c2csc(NC(=O)Cc3ccccc3OC)n2)c1`, the cell number change is 26.7%.

Source of the values: PubChem BioAssay AID2685 (National Center for Advancing Translational Sciences (NCATS), 2010).
